Measured values: PubChem BioAssay AID1671190 (National Center for Advancing Translational Sciences (NCATS), 2021)
Screen size: about 580,000 compounds; about 6,100 (1.1%) were called active. This list was built around the results that the source calls inconclusive (neither active nor inactive); the mix of calls is not that of the screen. Calls follow the shape of the dose curve; as a rule, active = well fitted inhibition curve with a large enough effect; inconclusive = small, poorly fitted or top-dose-only effect, or another doubt; inactive = no such curve, though single readings can be large or run the other way. Where the call is inconclusive, the potency comes from a doubtful curve fit.

Protein sequences, listed by entry. Tags and fused reporters are not part of them. Lines headed by an entry give the natural chain unless they say otherwise; changes in a name come on top.
UniProt P18054: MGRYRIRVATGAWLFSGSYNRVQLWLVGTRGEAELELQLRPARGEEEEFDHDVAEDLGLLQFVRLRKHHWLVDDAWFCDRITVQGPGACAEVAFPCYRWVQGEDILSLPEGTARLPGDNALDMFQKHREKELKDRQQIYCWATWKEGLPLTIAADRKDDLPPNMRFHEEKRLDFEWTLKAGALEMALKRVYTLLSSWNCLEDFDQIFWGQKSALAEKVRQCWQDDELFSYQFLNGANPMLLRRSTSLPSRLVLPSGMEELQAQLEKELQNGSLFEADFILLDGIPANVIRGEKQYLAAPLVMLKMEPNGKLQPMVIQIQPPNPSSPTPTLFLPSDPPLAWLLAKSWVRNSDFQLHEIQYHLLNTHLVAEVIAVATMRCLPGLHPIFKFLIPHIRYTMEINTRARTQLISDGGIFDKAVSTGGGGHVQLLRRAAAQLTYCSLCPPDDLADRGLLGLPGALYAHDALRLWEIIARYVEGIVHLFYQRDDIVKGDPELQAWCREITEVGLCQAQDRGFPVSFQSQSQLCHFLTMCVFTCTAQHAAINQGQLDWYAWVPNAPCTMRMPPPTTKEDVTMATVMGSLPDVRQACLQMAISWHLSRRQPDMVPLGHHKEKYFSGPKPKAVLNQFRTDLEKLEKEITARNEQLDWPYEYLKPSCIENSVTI

Each compound was assayed against Polyunsaturated fatty acid lipoxygenase ALOX12 (Homo sapiens) (UniProt P18054) (assay: Primary qHTS assay for inhibitors of human arachidonate 12S-lipoxygenase (ALOX12): Round 2). Settings: purified 12hLO, xylenol orange hydroperoxide absorbance; activity change, negative = inhibition: at 108 µM (top of the series) unless noted.
Procedure, shortened: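 Hydroperoxide product was detected by ferrous iron/xylenol orange as the 573 to 405 nm absorbance ratio. Arachidonic acid at 40 uM (final) was turned over for 30 min at room temperature by 150 nM human 12hLO, pH 7.0 Hepes buffer, after 15 min compound preincubation.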
% is scaled to controls: 0 for no effect and ±100 for the full control effect; potency is read from the fitted curve at half-maximal effect.

| Structure (SMILES) | Potency | activity change, negative = inhibition |
| --- | --- | --- |
| COc1ccc(Oc2ccc(N/C=C3/CCCC3=O)cc2)cc1 | inactive |  |
| COc1ccccc1C(=O)C1Nc2ccccc2-c2nnc(SC)nc2O1 (stereo not drawn) | inconclusive: 5.01 µM [inhibitor, full curve, poor fit] |  |
| CC(C)(C)c1ccc(C(=O)OCc2c(-c3ccccc3)ncc3ccccc23)cc1 | inactive |  |
| COc1ccc(-c2cn3c(n2)CO[C@@H](CNC2CCC2)C3)cc1 | inactive |  |
| CC(C)CCN1CCC2(Cc3ccccc3CNC2=O)C1 (stereo not drawn) |  | inactive: 8.77% [at 12.5 µM] |
| O=[N+]([O-])c1ccc(NCCCNS(=O)(=O)c2ccccc2)cc1 | inconclusive: 56.2 µM [inhibitor, partial curve, poor fit] |  |
| COc1cccc(C(=O)Nc2cccc(-c3ccc(N4CCOCC4)nn3)c2)c1 | inconclusive: 50.1 µM [inhibitor, partial curve, poor fit] |  |
| Cc1cnc(C(=O)N2CCc3c([nH]c4ccccc34)C2c2ccc(F)cc2)cn1 (stereo not drawn) | inactive |  |
| CCOc1ccc(N)cc1OCC | inconclusive: 141 µM [inhibitor, single point] |  |
| Cc1ccc(NC(=O)c2oc3c(c2C)-c2[nH]ncc2CC3)c(Cl)c1 | inconclusive: 25.1 µM [inhibitor, full curve, poor fit] |  |
| Cc1ccc([C@@H]2CC=C(C(=O)O)[C@H](c3ccc(Br)cc3)N2S(=O)(=O)c2ccc(C)cc2)cc1 | inconclusive: 44.7 µM [inhibitor, partial curve, poor fit] |  |
| CC(C)CC(=O)NC(=S)Nc1cc(C(F)(F)F)ccc1N1CCOCC1 | inconclusive: 50.1 µM [inhibitor, single point] |  |
| CSc1ccccc1NC(=O)CN(Cc1ccccc1)S(C)(=O)=O | inconclusive: 79.4 µM [inhibitor, partial curve, poor fit] |  |
| Cc1ccc(-c2ncc(C(=O)Nc3cc(F)cc(F)c3)c(-c3ccncc3)n2)cc1 | inconclusive: 56.2 µM [inhibitor, single point] |  |
| Cc1ccc(C(O)c2ncc(-c3cccc4ccccc34)[nH]2)cc1F (stereo not drawn) | inconclusive: 4.47 µM [inhibitor, full curve, poor fit] |  |
| COc1ccc(C(=O)NC[C@@H]2C=C(C)[C@H](Cc3nnc(-c4ccncc4)o3)C[C@H]2C(C)C)cc1 | inactive |  |
| Cn1cnc(S(=O)(=O)N2CCCC(C(=O)NCc3ccc(F)cc3)C2)c1 (stereo not drawn) | inconclusive: 35.5 µM [inhibitor, single point] |  |
| COC(=O)[C@]1(C)N[C@H](c2ccc(-c3ccc(F)cc3)cc2)[C@@H]2C(=O)N(C)C(=O)[C@@H]21 | inconclusive: 35.5 µM [inhibitor, partial curve, poor fit] |  |

Single values from the list.
For Potency, Cc1ccc(C(O)c2ncc(-c3cccc4ccccc34)[nH]2)cc1F (stereo not drawn) is entered as inconclusive: 4.47 µM [inhibitor, full curve, poor fit]
For Potency, COc1ccccc1C(=O)C1Nc2ccccc2-c2nnc(SC)nc2O1 (stereo not drawn) is entered as inconclusive: 5.01 µM [inhibitor, full curve, poor fit]
